Measurements from publication doi:10.1101/2025.05.12.653341.
No constants are given. Whether binding was seen depends on the method and setting. In cells and extracts the contact can be indirect. Some binding calls cover weakened binding; strength is not graded here. Sequences can lack the tags named with a protein.

Amino acid sequences for entries named in this document (tags omitted).
UniProt P05412: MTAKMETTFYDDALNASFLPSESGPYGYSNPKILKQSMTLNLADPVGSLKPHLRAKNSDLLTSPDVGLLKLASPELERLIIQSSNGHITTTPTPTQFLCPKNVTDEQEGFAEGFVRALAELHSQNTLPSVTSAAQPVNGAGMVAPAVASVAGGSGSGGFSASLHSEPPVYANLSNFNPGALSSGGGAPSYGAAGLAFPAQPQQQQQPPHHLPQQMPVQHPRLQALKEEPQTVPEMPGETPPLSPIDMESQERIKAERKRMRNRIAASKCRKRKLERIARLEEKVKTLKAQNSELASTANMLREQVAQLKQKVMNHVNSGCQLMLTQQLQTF

Molecular target: T1, ZMAT3-3xFLAG-2xHA (UniProt Q9HA38)
T1 sequence: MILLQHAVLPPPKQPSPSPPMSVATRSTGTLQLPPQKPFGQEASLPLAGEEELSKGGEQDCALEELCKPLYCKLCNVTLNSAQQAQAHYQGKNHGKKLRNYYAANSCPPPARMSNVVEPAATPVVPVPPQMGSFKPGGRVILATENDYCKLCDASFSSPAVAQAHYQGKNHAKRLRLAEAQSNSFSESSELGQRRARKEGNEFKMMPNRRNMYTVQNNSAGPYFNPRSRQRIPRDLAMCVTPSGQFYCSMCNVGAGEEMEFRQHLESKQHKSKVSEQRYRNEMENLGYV
Test: co-IP; anti-FLAG M2 magnetic beads, whole cell lysates of untreated or doxycycline-treated ZMAT3-FLAG-HA HCT116 cells; 10 mM Tris/Cl pH 7.5, 150 mM NaCl, 0.5 mM EDTA, 0.5 % NP40; overnight at 4°C; eluted with 3xFLAG peptide; immunoblotting

binding: binds
Substance: JUN (c-Jun) (from UniProt P05412 1-331)
